Measurements as given in the supplement of paper PMC11006884.
Shown are results outside the selection of targets with a hit, which stands elsewhere. This is a noisy data set. The entries are a selection whose mix differs from that of the whole data set.

Amino acid sequences for entries named in this document (tags omitted). A change or cut given only in a name is not applied to a line headed by its entry.
UniProt Q16891: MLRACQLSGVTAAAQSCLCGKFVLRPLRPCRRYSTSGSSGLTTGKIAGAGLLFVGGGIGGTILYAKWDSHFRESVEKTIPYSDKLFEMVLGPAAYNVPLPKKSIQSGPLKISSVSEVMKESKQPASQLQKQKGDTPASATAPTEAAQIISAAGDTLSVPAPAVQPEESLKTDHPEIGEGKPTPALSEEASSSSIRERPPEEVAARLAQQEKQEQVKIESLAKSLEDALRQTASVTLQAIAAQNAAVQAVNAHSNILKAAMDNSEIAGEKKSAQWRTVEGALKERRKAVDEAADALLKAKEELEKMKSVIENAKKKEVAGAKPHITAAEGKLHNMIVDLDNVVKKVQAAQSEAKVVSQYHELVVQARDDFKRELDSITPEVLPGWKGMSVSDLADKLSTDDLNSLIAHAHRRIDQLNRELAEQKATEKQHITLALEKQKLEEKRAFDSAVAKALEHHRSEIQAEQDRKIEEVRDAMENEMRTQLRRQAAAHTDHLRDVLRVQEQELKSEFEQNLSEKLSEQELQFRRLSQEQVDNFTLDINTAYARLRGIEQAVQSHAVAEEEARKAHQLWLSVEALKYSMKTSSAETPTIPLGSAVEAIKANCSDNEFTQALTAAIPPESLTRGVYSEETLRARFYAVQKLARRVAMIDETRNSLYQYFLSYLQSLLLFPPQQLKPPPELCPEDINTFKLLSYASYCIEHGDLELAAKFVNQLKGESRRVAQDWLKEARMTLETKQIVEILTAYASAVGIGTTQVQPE
UniProt Q16512: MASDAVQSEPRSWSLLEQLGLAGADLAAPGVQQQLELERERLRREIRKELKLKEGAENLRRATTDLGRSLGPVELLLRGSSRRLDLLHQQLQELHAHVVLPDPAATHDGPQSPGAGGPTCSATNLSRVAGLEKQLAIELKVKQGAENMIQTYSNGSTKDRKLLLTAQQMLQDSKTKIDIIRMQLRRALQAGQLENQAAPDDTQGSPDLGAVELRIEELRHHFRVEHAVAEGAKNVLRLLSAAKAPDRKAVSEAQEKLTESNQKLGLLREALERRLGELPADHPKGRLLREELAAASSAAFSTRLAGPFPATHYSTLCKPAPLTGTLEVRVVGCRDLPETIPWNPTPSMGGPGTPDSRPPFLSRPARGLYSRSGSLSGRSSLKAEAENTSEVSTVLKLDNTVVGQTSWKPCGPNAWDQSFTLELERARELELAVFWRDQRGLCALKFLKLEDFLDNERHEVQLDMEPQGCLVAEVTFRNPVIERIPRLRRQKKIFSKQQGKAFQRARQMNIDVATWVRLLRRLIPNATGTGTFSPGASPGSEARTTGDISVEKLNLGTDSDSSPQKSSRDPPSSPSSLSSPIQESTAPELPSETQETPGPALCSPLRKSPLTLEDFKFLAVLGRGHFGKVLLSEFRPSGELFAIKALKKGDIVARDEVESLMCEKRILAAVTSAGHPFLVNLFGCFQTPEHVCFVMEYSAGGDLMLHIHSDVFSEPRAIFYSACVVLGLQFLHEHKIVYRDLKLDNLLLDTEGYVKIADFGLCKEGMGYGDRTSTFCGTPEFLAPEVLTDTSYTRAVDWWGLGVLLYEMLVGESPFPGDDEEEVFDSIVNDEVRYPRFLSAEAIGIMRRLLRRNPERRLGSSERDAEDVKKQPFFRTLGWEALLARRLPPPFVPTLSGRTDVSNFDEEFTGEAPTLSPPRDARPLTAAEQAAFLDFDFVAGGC
UniProt Q15024, whole entry: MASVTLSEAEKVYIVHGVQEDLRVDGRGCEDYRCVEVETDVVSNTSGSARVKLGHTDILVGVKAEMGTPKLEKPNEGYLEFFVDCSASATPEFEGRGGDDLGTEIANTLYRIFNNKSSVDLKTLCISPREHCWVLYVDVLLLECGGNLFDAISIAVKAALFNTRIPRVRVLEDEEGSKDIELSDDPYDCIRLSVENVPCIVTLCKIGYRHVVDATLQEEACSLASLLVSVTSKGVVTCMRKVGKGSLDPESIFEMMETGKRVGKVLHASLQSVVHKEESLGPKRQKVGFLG
UniProt Q49A26: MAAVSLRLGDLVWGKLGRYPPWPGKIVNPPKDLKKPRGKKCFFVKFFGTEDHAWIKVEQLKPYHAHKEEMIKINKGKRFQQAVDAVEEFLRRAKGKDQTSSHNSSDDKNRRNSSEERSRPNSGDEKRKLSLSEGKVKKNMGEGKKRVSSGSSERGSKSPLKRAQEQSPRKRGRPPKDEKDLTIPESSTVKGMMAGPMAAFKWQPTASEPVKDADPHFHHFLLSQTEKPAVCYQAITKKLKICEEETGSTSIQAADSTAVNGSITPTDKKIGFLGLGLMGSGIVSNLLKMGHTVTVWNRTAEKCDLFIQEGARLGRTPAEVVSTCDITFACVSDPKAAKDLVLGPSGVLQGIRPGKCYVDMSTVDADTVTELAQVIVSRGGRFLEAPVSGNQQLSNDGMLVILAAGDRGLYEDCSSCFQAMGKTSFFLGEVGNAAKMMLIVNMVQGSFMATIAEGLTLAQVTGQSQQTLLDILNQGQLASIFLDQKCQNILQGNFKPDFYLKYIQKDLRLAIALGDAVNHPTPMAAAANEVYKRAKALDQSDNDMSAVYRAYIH
UniProt Q17RN3: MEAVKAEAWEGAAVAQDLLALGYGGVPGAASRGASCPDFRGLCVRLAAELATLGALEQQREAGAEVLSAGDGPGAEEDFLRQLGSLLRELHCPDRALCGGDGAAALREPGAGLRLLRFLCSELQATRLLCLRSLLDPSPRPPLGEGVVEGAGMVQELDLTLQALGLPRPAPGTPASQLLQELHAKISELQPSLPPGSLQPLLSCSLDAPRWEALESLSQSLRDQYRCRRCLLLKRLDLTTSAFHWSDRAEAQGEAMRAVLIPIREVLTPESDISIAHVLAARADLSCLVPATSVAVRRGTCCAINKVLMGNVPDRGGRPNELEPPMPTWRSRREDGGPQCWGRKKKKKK
UniProt Q15334: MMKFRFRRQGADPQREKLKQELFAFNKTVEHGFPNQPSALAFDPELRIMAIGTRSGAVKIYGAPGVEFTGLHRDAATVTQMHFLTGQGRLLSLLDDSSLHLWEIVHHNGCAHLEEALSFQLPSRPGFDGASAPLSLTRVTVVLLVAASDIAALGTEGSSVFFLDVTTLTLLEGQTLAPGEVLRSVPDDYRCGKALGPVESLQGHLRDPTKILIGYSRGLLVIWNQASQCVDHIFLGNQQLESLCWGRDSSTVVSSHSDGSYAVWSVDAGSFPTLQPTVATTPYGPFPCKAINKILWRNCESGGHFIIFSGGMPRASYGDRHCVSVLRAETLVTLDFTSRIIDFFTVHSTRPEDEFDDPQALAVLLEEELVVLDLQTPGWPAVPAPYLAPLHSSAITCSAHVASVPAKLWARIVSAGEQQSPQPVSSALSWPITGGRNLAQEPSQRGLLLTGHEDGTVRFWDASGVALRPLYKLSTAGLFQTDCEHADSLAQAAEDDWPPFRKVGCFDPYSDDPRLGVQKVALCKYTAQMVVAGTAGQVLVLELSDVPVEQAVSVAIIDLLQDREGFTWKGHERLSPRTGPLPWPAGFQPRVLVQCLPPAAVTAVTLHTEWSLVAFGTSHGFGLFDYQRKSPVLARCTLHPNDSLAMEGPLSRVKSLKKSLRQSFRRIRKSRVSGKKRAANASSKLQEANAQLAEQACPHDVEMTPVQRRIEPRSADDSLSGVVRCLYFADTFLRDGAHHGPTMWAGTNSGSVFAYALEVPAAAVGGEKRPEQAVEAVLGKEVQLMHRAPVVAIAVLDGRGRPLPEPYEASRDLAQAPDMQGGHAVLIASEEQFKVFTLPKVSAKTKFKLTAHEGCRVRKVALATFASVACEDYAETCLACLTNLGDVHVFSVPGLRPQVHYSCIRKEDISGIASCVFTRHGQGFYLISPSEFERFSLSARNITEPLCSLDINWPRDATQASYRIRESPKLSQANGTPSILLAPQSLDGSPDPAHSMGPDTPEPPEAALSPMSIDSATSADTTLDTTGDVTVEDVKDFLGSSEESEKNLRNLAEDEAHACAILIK
UniProt Q53EL6: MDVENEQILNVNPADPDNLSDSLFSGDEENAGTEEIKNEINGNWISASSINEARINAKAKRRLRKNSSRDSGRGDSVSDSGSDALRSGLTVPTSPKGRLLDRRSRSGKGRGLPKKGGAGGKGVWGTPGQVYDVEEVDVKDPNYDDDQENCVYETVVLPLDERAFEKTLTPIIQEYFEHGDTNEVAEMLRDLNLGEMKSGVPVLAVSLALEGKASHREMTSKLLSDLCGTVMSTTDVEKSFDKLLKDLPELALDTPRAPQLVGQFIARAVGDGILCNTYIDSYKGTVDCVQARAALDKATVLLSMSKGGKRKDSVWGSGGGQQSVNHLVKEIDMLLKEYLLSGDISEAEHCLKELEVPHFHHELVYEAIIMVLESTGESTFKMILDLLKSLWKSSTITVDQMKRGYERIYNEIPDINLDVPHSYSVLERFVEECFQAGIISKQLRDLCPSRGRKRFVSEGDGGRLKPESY
UniProt Q15637: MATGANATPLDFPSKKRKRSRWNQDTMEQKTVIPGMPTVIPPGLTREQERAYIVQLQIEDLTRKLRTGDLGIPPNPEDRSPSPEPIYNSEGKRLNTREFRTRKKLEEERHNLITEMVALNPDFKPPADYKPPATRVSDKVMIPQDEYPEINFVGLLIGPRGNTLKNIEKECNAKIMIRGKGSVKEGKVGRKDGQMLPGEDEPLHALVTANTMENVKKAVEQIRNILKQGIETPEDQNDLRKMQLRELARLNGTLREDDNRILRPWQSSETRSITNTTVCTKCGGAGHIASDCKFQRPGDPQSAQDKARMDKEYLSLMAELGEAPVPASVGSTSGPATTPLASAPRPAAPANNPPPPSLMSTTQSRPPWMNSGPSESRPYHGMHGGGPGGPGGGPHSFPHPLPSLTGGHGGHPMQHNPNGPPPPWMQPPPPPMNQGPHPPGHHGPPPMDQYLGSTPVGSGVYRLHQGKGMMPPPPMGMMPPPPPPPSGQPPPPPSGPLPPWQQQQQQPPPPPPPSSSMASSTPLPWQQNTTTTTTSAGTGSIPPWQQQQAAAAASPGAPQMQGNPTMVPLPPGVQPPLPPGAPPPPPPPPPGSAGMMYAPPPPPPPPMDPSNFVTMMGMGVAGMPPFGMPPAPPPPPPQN
UniProt Q29RF7: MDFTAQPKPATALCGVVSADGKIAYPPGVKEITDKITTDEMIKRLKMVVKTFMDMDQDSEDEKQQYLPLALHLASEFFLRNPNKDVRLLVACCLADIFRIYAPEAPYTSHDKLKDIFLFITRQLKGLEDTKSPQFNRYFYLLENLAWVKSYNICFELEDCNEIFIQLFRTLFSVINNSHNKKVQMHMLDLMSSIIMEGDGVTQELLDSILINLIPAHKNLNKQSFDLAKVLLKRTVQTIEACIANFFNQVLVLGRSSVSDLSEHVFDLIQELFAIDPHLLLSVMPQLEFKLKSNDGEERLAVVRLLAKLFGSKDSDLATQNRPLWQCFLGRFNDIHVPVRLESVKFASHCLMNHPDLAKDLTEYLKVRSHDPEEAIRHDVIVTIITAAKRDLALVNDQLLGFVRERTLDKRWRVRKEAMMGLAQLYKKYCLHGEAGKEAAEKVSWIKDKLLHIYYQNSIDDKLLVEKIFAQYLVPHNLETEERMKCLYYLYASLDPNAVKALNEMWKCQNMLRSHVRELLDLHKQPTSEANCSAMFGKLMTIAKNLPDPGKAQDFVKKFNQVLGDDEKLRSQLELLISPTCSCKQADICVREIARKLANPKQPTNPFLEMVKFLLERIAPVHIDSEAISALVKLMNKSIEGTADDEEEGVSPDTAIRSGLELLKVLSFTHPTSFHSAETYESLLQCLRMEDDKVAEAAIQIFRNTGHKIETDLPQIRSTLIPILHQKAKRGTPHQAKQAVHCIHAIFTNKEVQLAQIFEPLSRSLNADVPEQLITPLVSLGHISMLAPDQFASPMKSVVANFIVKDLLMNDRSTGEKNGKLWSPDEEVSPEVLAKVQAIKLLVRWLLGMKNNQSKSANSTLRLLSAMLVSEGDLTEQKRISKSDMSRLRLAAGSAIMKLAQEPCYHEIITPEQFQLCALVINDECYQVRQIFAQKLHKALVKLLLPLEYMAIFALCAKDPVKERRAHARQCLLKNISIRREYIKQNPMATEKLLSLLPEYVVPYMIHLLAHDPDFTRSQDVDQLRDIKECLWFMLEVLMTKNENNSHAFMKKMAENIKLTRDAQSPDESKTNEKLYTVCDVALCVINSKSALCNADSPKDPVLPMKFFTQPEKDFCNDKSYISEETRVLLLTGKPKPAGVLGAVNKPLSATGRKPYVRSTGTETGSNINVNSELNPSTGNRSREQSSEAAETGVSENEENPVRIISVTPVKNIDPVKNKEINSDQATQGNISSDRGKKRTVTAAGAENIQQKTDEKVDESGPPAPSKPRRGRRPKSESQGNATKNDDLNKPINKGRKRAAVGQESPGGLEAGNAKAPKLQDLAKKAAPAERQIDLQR
UniProt Q56VL3: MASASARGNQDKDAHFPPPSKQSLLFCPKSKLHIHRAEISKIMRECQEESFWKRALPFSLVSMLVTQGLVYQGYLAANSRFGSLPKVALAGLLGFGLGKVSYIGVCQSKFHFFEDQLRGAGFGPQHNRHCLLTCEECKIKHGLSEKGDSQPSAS

Each target was assayed with COC(=O)/C=C/c1ccccc1 [methyl cinnamate] (assay: log2 ratio of iodoacetamide-alkyne labeling of the cysteine site, DMSO over compound (competition); higher = stronger covalent engagement of the cysteine by the compound, active = 1 or more). Settings: 500 µM; treatment time 1 h; system: HEK293T cell lysate.
Procedure, shortened: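 The log2 competition ratio per cysteine is defined as mean reporter intensity in control channels over mean reporter intensity in compound channels. Lysate from HEK293T cells (2 mg/mL) received electrophile (500 µM) or vehicle for 1 h at ambient temperature, followed by iodoacetamide alkyne for 1 h. Samples were clicked to sCIP-TMT reagents, pooled, trypsin-digested overnight at 37 °C, streptavidin-enriched, acid-eluted and run on Orbitrap Eclipse LC-MS/MS with FAIMS, with quantification in FragPipe. Three replicates with duplicate channels were used, and any cysteine quantified in only one replicate was excluded.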

log2 ratio of iodoacetamide-alkyne labeling, inactive:
TYSND1 C77 (UniProt Q2T9J0) 0.096
IMMT C603 (UniProt Q16891) 0.121
MAP7D1 C361 (UniProt Q3KQU3) 0.279
UBE3C C158 (UniProt Q15386) 0.0777
UniProt Q16512_C317 -0.0584
CNN3 C173 (UniProt Q15417) 0.3
EZH2 C83 (UniProt Q15910) 0.398
PTGES3 C40 (UniProt Q15185) 0.00949
ACOX1 C449 (UniProt Q15067) 0.0541
EXOSC7 C85 (UniProt Q15024) 0.107
CPSF6 C159 (UniProt Q16630) 0.243
UniProt Q1ED39_C78 0.235
ERCC6L C356 (UniProt Q2NKX8) 0.199
GLYR1 C356 (UniProt Q49A26) 0.102
FAM98C C287 (UniProt Q17RN3) 0.171
LARS2 C167 (UniProt Q15031) -0.322
LLGL1 C697 (UniProt Q15334) 0.258
SETDB1 C987 (UniProt Q15047) -0.131
UniProt Q15365_C109 0.141
PDCD4 C350 (UniProt Q53EL6) 0.126
LRRC14 C221 (UniProt Q15048) 0.131
SUZ12 C325 (UniProt Q15022) -0.0127
TRIP13 C14 (UniProt Q15645) 0.0795
FSCN1 C80 (UniProt Q16658) 0.153
SF1 C279 (UniProt Q15637) 0.00972
PDS5A C581 (UniProt Q29RF7) 0.265
TBCE C301 (UniProt Q15813) 0.0681
UniProt Q3LXA3_C24 -0.448
ATG2A C1870 (UniProt Q2TAZ0) 0.057
UniProt Q15149_C3295 0.436
SURF2 C127 (UniProt Q15527) 0.0632
BAK1 C14 (UniProt Q16611) 0.287
TBC1D10B C573 (UniProt Q4KMP7) 0.174
AMOT C617 (UniProt Q4VCS5) 0.0451
EEA1 C1299 (UniProt Q15075) -0.0883
PAFAH1B3 C55 (UniProt Q15102) -0.0918
OCIAD2 C27 (UniProt Q56VL3) 0.293

Quoted at random: 3 records from the list
log2 ratio of iodoacetamide-alkyne labeling, inactive:
PDS5A C581 (UniProt Q29RF7) 0.265
IMMT C603 (UniProt Q16891) 0.121
ACOX1 C449 (UniProt Q15067) 0.0541
